Measured values taken from US20230069963A1, “PYRAZOLO[1,5-A]PYRIMIDINE MACROCYCLIC COMPOUND” (priority 2018, published 2023).
For at least one compound, name, drawing or mass did not settle the structure.

Tested on: RSV ATCC VR-1540 (A2)
Type: cell-based
Conditions: Hep2 cells, incubated for 4 days, CPE detected with XTT assay (absorbance 450 nm); read-out: EC50 (nmol/L) against RSV A2 strain

For `C=Cc1ccc2c(c1)C(=O)N1CCCC[C@H]1c1cc3nc(C4CC4)cc(n3n1)N(C)CCNC(=O)CO2` [Example 95, (18aS)-13-cyclopropyl-2-ethenyl-11-methyl-8,9,10,11,19,20,21,22-octahydro-18aH,24H-18,15-(metheno)pyrido[2,1-l]pyrimido[6,1-h][1,4,7,9,10,13]benzoxapentaazacyclohexadecine-7,24(6H)-dione], the EC50 was roughly 0.4 nmol/L.
